No constants are given. Whether binding was seen depends on the method and setting.
How the values were obtained:
[1] = target: B Box-97 (HMGB1 amino acids 80 to 176) (human) (UniProt P09429); test: cross-linking; B Box-97 or mB Box-97syn alone in the presence of glutaraldehyde (Supplementary Figure S7); both purified
[2] = target: mB Box-97syn (synthetic 97 amino acid peptide, B Box-97 of HMGB1 with C106S) (human) (UniProt P09429); test: as above

Chains of the proteins cited; added tags and fusions are not shown. Lines headed by an entry give the natural chain unless they say otherwise; changes in a name come on top. A line that says so, or that is headed by a name, gives the form on record, which may keep a tag or linker. Residues count along the entry.
B Box-97 (HMGB1 amino acids 80 to 176) (P09429, residues 80-176): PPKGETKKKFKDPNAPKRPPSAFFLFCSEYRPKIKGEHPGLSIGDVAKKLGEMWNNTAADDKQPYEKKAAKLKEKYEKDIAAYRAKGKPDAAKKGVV
mB Box-97syn (synthetic 97 amino acid peptide, B Box-97 of HMGB1 with C106S) (P09429, form named): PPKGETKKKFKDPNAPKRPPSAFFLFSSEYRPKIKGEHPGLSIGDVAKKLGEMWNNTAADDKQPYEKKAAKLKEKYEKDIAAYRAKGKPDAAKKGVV

Substance	binding [1]	binding [2]
B Box-97 (HMGB1 amino acids 80 to 176) (from UniProt P09429 80-176) (domain or fragment)	no binding	
mB Box-97syn (synthetic 97 amino acid peptide, B Box-97 of HMGB1 with C106S) (from UniProt P09429 80-176)		no binding
